Measured values taken from paper doi:10.1101/2025.05.20.654906.
No constants are given. Whether binding was seen depends on the method and setting. In cells and extracts the contact can be indirect. Binding can be weak; no strength is given.

Sequences of proteins named here, by UniProt entry; tags and fusion partners are left off.
UniProt P22953: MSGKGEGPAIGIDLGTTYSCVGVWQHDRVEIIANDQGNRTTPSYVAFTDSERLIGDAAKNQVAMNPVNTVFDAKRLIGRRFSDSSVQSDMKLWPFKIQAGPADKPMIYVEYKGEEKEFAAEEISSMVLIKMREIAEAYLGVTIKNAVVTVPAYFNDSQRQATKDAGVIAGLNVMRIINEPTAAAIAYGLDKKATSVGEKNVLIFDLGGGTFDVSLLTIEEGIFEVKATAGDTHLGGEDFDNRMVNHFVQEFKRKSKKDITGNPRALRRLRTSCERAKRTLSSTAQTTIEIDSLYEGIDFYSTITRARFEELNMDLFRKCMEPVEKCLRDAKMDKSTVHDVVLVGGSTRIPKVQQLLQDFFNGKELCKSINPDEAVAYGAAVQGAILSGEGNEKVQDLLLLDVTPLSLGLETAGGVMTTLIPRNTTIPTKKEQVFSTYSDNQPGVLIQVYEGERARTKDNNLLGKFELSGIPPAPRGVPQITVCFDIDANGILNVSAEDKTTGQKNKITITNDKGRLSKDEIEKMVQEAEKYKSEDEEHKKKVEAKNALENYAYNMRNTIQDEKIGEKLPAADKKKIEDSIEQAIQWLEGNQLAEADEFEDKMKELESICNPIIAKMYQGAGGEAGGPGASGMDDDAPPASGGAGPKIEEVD

Target: AtDjB3-GFP (Arabidopsis thaliana) (UniProt Q9SIL3)
Test: co-IP

In the case of Hsc70-1 (from UniProt P22953 1-651), the binding is reported as “binds”.
